# Measurements as given in the supplement of paper PMC12819154, “High-throughput peptide-centric local stability assay extends protein–ligand identification to membrane proteins, tissues and bacteria” (Nature Structural & Molecular Biology, 2025).
# The chains behind the UniProt entries cited, without tags or fusion partners. Where a name states a change or a piece, a line headed by the entry shows the natural chain unless it says otherwise.
# UniProt Q9ESC8: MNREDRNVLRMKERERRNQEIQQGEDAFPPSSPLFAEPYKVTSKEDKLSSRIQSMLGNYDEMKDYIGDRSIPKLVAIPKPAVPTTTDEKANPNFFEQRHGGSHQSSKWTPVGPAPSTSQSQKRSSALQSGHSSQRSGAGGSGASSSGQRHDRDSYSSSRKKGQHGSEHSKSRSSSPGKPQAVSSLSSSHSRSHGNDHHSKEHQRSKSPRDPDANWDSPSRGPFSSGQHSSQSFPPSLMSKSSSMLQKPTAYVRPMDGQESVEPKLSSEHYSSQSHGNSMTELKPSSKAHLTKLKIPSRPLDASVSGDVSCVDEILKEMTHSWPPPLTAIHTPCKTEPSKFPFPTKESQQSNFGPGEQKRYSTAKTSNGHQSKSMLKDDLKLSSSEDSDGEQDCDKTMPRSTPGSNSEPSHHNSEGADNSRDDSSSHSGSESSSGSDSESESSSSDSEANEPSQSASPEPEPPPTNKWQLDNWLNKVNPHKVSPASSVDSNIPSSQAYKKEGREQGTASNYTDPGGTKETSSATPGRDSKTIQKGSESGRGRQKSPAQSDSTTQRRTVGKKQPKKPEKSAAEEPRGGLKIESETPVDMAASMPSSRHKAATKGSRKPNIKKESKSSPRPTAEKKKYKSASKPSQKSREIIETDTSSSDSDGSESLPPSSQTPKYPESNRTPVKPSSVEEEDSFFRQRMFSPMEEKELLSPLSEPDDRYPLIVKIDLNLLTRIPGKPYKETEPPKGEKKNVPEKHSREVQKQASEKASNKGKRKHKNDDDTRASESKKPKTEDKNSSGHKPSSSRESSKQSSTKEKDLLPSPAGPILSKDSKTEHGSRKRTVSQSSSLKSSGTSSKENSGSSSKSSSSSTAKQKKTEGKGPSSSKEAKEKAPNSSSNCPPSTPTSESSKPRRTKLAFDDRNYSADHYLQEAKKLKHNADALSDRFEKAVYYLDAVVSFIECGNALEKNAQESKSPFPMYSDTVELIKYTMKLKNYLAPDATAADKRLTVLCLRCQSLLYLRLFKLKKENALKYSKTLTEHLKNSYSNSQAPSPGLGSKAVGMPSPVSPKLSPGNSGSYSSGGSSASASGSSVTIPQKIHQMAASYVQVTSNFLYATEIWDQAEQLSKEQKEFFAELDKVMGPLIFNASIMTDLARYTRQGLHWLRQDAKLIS
# UniProt Q9JHS3, whole entry: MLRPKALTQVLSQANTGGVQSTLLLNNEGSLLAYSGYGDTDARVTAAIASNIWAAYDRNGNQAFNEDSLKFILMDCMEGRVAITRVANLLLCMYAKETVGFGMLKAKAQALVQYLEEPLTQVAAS
# UniProt Q9JJG0: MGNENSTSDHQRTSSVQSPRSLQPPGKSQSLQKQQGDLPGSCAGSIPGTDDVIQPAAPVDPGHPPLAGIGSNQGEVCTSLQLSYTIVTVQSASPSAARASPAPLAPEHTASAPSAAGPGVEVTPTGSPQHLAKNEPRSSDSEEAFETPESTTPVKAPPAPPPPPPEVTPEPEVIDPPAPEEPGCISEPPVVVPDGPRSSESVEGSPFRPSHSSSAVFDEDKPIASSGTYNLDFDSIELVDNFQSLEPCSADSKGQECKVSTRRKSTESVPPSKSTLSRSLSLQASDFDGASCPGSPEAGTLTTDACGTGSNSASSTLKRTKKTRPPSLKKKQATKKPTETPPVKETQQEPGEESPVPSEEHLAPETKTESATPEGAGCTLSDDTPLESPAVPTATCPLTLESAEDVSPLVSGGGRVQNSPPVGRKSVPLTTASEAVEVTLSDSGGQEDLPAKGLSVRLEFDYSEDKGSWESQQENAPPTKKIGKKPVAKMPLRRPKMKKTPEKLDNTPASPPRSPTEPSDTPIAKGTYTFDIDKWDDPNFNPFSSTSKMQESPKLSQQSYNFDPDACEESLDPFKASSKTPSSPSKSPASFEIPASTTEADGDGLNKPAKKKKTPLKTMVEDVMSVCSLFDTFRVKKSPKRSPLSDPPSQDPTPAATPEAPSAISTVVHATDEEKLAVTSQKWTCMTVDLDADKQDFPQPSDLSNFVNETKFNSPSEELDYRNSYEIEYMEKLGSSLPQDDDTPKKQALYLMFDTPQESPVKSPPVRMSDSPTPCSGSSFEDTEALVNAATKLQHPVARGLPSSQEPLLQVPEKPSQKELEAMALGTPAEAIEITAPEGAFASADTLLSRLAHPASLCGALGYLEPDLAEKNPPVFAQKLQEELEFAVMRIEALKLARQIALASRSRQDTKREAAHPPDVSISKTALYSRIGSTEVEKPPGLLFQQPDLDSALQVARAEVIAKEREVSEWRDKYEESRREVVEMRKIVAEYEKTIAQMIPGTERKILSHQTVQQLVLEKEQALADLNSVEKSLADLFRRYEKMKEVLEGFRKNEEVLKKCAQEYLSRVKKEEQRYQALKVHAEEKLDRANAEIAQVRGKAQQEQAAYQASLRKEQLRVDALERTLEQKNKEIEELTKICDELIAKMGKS
# UniProt Q9JJU8: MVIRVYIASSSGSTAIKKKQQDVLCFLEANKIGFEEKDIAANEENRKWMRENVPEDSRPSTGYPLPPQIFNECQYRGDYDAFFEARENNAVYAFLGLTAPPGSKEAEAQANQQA
# UniProt Q9JJT9, whole entry: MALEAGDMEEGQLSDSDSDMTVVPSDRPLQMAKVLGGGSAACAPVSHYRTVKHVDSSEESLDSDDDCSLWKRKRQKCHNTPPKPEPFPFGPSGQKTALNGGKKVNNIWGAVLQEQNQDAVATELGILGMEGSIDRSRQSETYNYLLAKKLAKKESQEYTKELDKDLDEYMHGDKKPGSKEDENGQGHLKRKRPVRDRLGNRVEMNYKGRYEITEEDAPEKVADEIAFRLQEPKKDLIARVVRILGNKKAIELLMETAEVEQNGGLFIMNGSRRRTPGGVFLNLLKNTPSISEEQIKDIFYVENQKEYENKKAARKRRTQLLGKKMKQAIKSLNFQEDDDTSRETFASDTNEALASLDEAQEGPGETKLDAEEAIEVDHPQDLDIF
# UniProt Q9JLV1: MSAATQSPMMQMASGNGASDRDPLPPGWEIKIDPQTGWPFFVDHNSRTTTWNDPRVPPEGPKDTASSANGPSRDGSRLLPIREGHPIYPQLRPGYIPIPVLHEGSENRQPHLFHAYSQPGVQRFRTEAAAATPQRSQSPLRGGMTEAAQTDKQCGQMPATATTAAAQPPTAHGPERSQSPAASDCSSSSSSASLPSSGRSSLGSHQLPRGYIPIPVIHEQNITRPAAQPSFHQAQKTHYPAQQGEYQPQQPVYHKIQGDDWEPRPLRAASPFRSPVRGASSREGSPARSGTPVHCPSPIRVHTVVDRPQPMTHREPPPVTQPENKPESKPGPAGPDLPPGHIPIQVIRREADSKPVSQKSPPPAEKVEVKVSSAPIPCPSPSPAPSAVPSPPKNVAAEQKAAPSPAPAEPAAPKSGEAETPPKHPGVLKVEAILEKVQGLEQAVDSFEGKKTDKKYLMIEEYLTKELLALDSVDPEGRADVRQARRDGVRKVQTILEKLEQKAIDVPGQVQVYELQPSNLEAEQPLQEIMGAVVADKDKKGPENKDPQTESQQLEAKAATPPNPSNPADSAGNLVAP
# UniProt Q9ES46: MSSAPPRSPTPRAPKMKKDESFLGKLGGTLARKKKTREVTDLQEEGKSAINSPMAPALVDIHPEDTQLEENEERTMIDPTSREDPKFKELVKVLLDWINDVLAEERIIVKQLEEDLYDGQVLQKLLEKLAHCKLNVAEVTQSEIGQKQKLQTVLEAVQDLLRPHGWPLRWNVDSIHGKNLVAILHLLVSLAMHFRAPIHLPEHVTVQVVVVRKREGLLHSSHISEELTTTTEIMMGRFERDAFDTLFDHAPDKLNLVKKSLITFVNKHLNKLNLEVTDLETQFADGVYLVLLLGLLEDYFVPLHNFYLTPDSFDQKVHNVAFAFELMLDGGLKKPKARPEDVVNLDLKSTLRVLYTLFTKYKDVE
# UniProt Q9JKK8: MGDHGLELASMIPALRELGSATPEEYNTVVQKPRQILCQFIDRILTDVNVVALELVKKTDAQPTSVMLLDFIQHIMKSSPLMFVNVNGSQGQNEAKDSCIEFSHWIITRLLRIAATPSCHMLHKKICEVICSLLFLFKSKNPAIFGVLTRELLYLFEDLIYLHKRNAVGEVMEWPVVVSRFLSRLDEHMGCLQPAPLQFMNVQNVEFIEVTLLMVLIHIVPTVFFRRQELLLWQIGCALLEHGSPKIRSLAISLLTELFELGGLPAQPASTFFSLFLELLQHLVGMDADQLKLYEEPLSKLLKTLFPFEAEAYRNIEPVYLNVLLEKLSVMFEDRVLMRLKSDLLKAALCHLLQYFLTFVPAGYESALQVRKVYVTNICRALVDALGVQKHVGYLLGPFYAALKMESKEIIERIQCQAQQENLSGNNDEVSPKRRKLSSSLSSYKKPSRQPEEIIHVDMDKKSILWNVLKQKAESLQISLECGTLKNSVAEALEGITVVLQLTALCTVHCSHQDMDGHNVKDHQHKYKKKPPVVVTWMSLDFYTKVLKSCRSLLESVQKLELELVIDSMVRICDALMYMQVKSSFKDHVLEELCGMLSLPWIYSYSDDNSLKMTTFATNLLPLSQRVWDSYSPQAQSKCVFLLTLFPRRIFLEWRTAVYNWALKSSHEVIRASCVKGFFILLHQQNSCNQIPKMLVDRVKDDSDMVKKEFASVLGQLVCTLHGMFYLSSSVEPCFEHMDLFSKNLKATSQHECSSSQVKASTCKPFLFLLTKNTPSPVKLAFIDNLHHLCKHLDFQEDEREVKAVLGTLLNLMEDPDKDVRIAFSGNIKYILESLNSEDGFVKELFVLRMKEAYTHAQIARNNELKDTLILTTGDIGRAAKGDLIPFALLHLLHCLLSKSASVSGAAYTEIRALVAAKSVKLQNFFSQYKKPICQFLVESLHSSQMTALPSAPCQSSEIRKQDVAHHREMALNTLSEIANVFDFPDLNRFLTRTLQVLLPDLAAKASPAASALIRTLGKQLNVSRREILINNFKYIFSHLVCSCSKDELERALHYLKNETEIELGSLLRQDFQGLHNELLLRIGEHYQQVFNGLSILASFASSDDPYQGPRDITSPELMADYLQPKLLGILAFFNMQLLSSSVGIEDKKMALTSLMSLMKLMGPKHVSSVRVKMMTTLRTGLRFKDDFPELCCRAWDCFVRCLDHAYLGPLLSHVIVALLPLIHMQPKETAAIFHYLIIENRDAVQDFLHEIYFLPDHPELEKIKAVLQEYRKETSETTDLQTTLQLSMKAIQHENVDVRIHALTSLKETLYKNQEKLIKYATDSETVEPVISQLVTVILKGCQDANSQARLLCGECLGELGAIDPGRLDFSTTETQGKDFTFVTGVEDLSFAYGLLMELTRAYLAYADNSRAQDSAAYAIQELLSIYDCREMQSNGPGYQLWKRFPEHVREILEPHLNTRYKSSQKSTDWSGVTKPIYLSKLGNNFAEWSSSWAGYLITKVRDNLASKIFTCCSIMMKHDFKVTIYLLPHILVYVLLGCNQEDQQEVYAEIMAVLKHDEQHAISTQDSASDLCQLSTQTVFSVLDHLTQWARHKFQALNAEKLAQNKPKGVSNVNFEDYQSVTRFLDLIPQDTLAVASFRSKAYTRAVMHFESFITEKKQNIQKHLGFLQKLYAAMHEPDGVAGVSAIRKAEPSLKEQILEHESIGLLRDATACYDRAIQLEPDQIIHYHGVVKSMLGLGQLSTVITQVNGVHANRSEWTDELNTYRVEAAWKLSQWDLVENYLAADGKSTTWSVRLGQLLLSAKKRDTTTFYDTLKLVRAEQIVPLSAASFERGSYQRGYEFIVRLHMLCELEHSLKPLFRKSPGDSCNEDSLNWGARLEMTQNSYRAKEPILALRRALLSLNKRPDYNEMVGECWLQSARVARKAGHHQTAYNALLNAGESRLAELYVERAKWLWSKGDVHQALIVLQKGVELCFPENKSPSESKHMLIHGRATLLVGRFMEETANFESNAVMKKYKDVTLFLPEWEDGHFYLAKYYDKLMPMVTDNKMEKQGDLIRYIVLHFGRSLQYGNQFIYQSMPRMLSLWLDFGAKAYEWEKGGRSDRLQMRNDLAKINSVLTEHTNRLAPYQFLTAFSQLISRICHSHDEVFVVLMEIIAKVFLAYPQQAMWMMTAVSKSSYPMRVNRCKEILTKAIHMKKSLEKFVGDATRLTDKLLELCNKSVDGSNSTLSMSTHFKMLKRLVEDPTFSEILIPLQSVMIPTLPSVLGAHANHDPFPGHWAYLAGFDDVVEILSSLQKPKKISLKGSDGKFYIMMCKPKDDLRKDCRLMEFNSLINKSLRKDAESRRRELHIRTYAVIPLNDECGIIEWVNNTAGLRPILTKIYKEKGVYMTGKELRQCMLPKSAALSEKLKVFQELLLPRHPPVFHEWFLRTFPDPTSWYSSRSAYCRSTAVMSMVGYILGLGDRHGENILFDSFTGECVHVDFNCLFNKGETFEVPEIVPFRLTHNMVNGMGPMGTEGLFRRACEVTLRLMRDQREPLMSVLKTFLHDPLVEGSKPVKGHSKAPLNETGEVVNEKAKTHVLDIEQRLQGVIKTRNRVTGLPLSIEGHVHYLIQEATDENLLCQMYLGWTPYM
# This is one part of the list. Most values lie at the level of the controls, where differences are scatter.
# Compound: CN[C@@H]1C[C@H]2O[C@@](C)([C@@H]1OC)n1c3ccccc3c3c4c(c5c6ccccc6n2c5c31)C(=O)NC4 [staurosporine]
# Experiment: log2 fold change of tryptic peptide abundance, ligand vs vehicle (limited proteolysis) (log2 ratio); higher = more trypsin-susceptible (destabilized)
# Settings: ligand concentration: 20 uM; sample: mouse liver crude lysate; replicate design: treated separately
row,Target,log2 fold change
1,"UniProt Q9JJA9 (peptide sequence: ALAVSGGTLPR, peptide start residue: 69)",0.0145
2,"UniProt Q9ES00 (peptide sequence: HLLNSPTDPFNR, peptide start residue: 1132)",-0.33
3,"UniProt Q9JK42 (peptide sequence: HIGSIDPNCSVSDVVKDAYDMAK, peptide start residue: 187)",-0.163
4,"UniProt Q9JHC9 (peptide sequence: VVNITSPTHDGSSR, peptide start residue: 358)",-0.181
5,"UniProt Q9JI75 (peptide sequence: VLIVYAHQEPK, peptide start residue: 6)",-0.0758
6,"UniProt Q9JHW4 (peptide sequence: ETNIQLFVGLK, peptide start residue: 484)",0.317
7,"UniProt Q9ESC8 (peptide sequence: AVGMPSPVSPK, peptide start residue: 1047)",0.476
8,"UniProt Q9JLC3 (peptide sequence: CGNGLGHEFLNDGPKR, peptide start residue: 74)",-0.846
9,"UniProt Q9QWL7 (peptide sequence: ATMQNLNDR, peptide start residue: 74)",-0.0545
10,"UniProt Q9ESZ8 (peptide sequence: RPELLTHSTTEVTQPR, peptide start residue: 540)",-0.773
11,"UniProt Q9JHS3 (peptide sequence: FILMDCMEGR, peptide start residue: 71)",0.214
12,"UniProt Q9JJG0 (peptide sequence: NKEIEELTK, peptide start residue: 1129)",0.667
13,"UniProt Q9JJU8 (peptide sequence: VYIASSSGSTAIK, peptide start residue: 5)",0.151
14,"UniProt Q9JJL8 (peptide sequence: NLLYEHAR, peptide start residue: 42)",0.107
15,"UniProt Q9JIW9 (peptide sequence: VKSEEDKIPLLVVGNK, peptide start residue: 114)",-0.0576
16,"UniProt Q9JJF9 (peptide sequence: SVEDAEDRETR, peptide start residue: 203)",0.351
17,"UniProt Q9JJT9 (peptide sequence: DIFYVENQKEYENKK, peptide start residue: 297)",0.597
18,"UniProt Q9JJV4 (peptide sequence: TKREFLK, peptide start residue: 217)",-0.131
19,"UniProt Q9JJK2 (peptide sequence: SLDYVKR, peptide start residue: 129)",0.293
20,"UniProt Q9JIY8 (peptide sequence: GQTVGMVAARPVKDPLLQK, peptide start residue: 116)",-0.15
21,"UniProt Q9ESJ4 (peptide sequence: RILTEEEASPQCQMDR, peptide start residue: 681)",0.458
22,"UniProt Q9JI78 (peptide sequence: YSCKHDEVMSR, peptide start residue: 388)",0.436
23,"UniProt Q9JLV1 (peptide sequence: GYIPIPVIHEQNITR, peptide start residue: 210)",-0.298
24,"UniProt Q9ES46 (peptide sequence: ARPEDVVNLDLK, peptide start residue: 337)",-0.431
25,"UniProt Q9JKK8 (peptide sequence: TLQVLLPDLAAK, peptide start residue: 994)",-0.165

# An excerpt from the list above, for reference:
row,Target,log2 fold change
11,"UniProt Q9JHS3 (peptide sequence: FILMDCMEGR, peptide start residue: 71)",0.214
12,"UniProt Q9JJG0 (peptide sequence: NKEIEELTK, peptide start residue: 1129)",0.667
